The mice bore no tumour; each value counts animals alive of those treated. Survivors were counted at the toxicity check, usually on the fifth day, unless a day is given; later deaths do not show. Schedule codes are those of the source, taken here to give the interval after Q, in days (D) or hours (H), and the number of doses after X.
Tested on: CD2F1 mice, nontumored, toxicity/survival
Assay: NCI In Vivo Anticancer Drug Screen. Data for tumor model Nontumored Animals (Toxicity Test) in CD2F1 (CDF1) mice
Settings: vehicle: other

With `O=C(O)CCCc1ccc(N(CCCl)CCCl)cc1` the survivor count (dose: 1.0 mg/kg/injection, schedule: Q03HX024 (ip)) was 8 of 8, the survivor count (dose: 2.0 mg/kg/injection, schedule: Q01DX009 (oral)) was 8 of 8 and the survivor count (dose: 2.0 mg/kg/injection, schedule: Q03HX008 (ip)) was 8 of 8. The survivor count (dose: 2.0 mg/kg/injection, schedule: Q03HX016 (ip)) was 8 of 8, the survivor count (dose: 2.0 mg/kg/injection, schedule: Q03HX024 (ip)) was 8 of 8 and the survivor count (dose: 4.0 mg/kg/injection, schedule: Q01DX001 (oral)) was 8 of 8. For the same compound, the survivor count (dose: 4.0 mg/kg/injection, schedule: Q01DX009 (ip)) was 8 of 8, the survivor count (dose: 4.0 mg/kg/injection, schedule: Q01DX009 (oral)) was 8 of 8 and the survivor count (dose: 4.0 mg/kg/injection, schedule: Q01DX009 (sc)) was 8 of 8. For the same compound, the survivor count (dose: 4.0 mg/kg/injection, schedule: Q03HX008 (ip)) was 8 of 8, the survivor count (dose: 4.0 mg/kg/injection, schedule: Q03HX016 (ip)) was 8 of 8 and the survivor count (dose: 4.0 mg/kg/injection, schedule: Q03HX024 (ip)) was 8 of 8. For the same compound, the survivor count (dose: 4.0 mg/kg/injection, schedule: Q04DX003 (oral)) was 8 of 8, the survivor count (dose: 8.0 mg/kg/injection, schedule: Q01DX001 (oral)) was 8 of 8 and the survivor count (dose: 8.0 mg/kg/injection, schedule: Q01DX009 (ip)) was 8 of 8. For the same compound, the survivor count (dose: 8.0 mg/kg/injection, schedule: Q01DX009 (oral)) was 8 of 8, the survivor count (dose: 8.0 mg/kg/injection, schedule: Q01DX009 (sc)) was 8 of 8 and the survivor count (dose: 8.0 mg/kg/injection, schedule: Q03HX008 (ip)) was 8 of 8. The survivor count (dose: 8.0 mg/kg/injection, schedule: Q03HX016 (ip)) was 8 of 8, the survivor count (dose: 8.0 mg/kg/injection, schedule: Q03HX024 (ip)) was 8 of 8 and the survivor count (dose: 8.0 mg/kg/injection, schedule: Q04DX003 (ip)) was 8 of 8. The survivor count (dose: 8.0 mg/kg/injection, schedule: Q04DX003 (oral)) was 8 of 8, the survivor count (dose: 16.0 mg/kg/injection, schedule: Q01DX001 (ip)) was 8 of 8 and the survivor count (dose: 16.0 mg/kg/injection, schedule: Q01DX001 (oral)) was 8 of 8. The survivor count (dose: 16.0 mg/kg/injection, schedule: Q01DX001 (sc)) was 8 of 8, the survivor count (dose: 16.0 mg/kg/injection, schedule: Q01DX009 (ip)) was 8 of 8 and the survivor count (dose: 16.0 mg/kg/injection, schedule: Q01DX009 (oral)) was 8 of 8. For the same compound, the survivor count (dose: 16.0 mg/kg/injection, schedule: Q01DX009 (sc)) was 8 of 8, the survivor count (dose: 16.0 mg/kg/injection, schedule: Q03HX008 (ip)) was 8 of 8 and the survivor count (dose: 16.0 mg/kg/injection, schedule: Q03HX016 (ip)) was 8 of 8. For the same compound, the survivor count (dose: 16.0 mg/kg/injection, schedule: Q03HX024 (ip)) was 8 of 8, the survivor count (dose: 16.0 mg/kg/injection, schedule: Q04DX003 (ip)) was 8 of 8 and the survivor count (dose: 16.0 mg/kg/injection, schedule: Q04DX003 (oral)) was 8 of 8. For the same compound, the survivor count (dose: 16.0 mg/kg/injection, schedule: Q08DX002 (ip)) was 8 of 8, the survivor count (dose: 32.0 mg/kg/injection, schedule: Q01DX001 (ip)) was 8 of 8 and the survivor count (dose: 32.0 mg/kg/injection, schedule: Q01DX001 (oral)) was 8 of 8. For the same compound, the survivor count (dose: 32.0 mg/kg/injection, schedule: Q01DX001 (sc)) was 8 of 8, the survivor count (dose: 32.0 mg/kg/injection, schedule: Q01DX009 (ip)) was 8 of 8 and the survivor count (dose: 32.0 mg/kg/injection, schedule: Q01DX009 (oral)) was 8 of 8. For the same compound, the survivor count (dose: 32.0 mg/kg/injection, schedule: Q01DX009 (sc)) was 8 of 8, the survivor count (dose: 32.0 mg/kg/injection, schedule: Q04DX003 (ip)) was 8 of 8 and the survivor count (dose: 32.0 mg/kg/injection, schedule: Q04DX003 (oral)) was 8 of 8. For the same compound, the survivor count (dose: 32.0 mg/kg/injection, schedule: Q08DX002 (ip)) was 8 of 8, the survivor count (dose: 64.0 mg/kg/injection, schedule: Q01DX001 (ip)) was 6 of 8 and the survivor count (dose: 64.0 mg/kg/injection, schedule: Q01DX001 (oral)) was 8 of 8. The survivor count (dose: 64.0 mg/kg/injection, schedule: Q01DX001 (sc)) was 8 of 8, the survivor count (dose: 64.0 mg/kg/injection, schedule: Q01DX009 (ip)) was 1 of 8 and the survivor count (dose: 64.0 mg/kg/injection, schedule: Q01DX009 (oral)) was 6 of 8. The survivor count (dose: 64.0 mg/kg/injection, schedule: Q01DX009 (sc)) was 4 of 8, the survivor count (dose: 64.0 mg/kg/injection, schedule: Q04DX003 (ip)) was 8 of 8 and the survivor count (dose: 64.0 mg/kg/injection, schedule: Q04DX003 (oral)) was 8 of 8. For the same compound, the survivor count (dose: 64.0 mg/kg/injection, schedule: Q08DX002 (ip)) was 8 of 8, the survivor count (dose: 128.0 mg/kg/injection, schedule: Q01DX001 (ip)) was 1 of 8 and the survivor count (dose: 128.0 mg/kg/injection, schedule: Q01DX001 (oral)) was 4 of 8. For the same compound, the survivor count (dose: 128.0 mg/kg/injection, schedule: Q01DX001 (sc)) was 6 of 8, the survivor count (dose: 128.0 mg/kg/injection, schedule: Q04DX003 (ip)) was 0 of 8 and the survivor count (dose: 128.0 mg/kg/injection, schedule: Q04DX003 (oral)) was 6 of 8. For the same compound, the survivor count (dose: 128.0 mg/kg/injection, schedule: Q08DX002 (ip)) was 1 of 8.

From PubChem BioAssay AID188 (DTP/NCI, 2004)
